Experimental findings from patent publication US12329160B2, “Activated ferrate compositions” (THE TEXAS A & M UNIVERSITY SYSTEM, priority 2018, dated 2025) are described below.

The structures appear in SMILES notation.

The series is described as follows: Oxidation of individual organic contaminants by Fe^VI with or without S2O3^2− in buffered ultrapure water, HPLC. As to conditions: Fe^VI 100.0 μM, S2O3^2− 12.5 μM, pH 8.00, 30 s. It counts as physicochemical. The protocol:
To test liquid ferrate solutions using second approach, batch experiments were conducted in a series of 100 mL glass jars under constant stirring rate (400 rpm) with a magnetic stirrer. Oxidation of each micropollutant or their mixtures by Fe^VI with or without S2O3^2− was initiated by mixing equal solution volumes of 10 mL, and the final reaction solutions were kept at 8.00±0.04.
The stock solutions of these contaminants (10.0 μM) were prepared in 10.0 mM Na2HPO4, and diluted using the same buffer solution before the removal experiments. […] Solutions of Fe^VI were prepared by adding K2FeO4 powders to 5.0 mM Na2HPO4/1.0 mM Na2B4O7.10H2O buffer solution. The concentrations of Fe^VI were quantitatively measured using an UV-visible spectrometer at a wavelength of 510 nm with a molar absorption coefficient of ε510 nm=1150 M^−1 cm^−1: The pH value of the contaminant solutions was adjusted to 7.50 via the addition of diluted H3PO4 before mixing with Fe^VI solution to achieve the desired reaction pH at 8.00±0.04. Methanol and phosphoric acid (85%) of high performance liquid chromatography (HPLC) grade were used in testing. […]
Experiments were conducted in a series of 100 mL glass jars under constant stirring rate (400 rpm) with a magnetic stirrer. […] Samples were transferred into high performance liquid chromatography (HPLC) vials, and were subsequently analyzed using the HPLC method. […]

In the case of `Cn1c(=O)c2c(ncn2C)n(C)c1=O` [CAF, Caffeine], the “oxidation by Fe^VI—S2O3^2− with versus without oxygen (FIG. 7)” value (air or nitrogen, contaminant 1.0 μM) was “no obvious difference”. Consider `CC(C)NCC(O)COc1cccc2ccccc12` (centres unmarked) [PPN, Propranolol], for which the “removal by Fe^VI—S2O3^2− (FIG. 3)” value (individual contaminant 1.0 μM) was “Almost complete removal”.
